Laboratory results reported in US11053230B2, “3-hydroxy-imidazolidin-4-one compounds as inhibitors of indoleamine 2,3-dioxygenase” (Netherlands Translational Research Center B.V., priority 2017, dated 2021).
Some of these results come from one statement about several compounds together.

Protein sequences, listed by entry. Tags and fused reporters are not part of them.
UniProt P14902, whole entry: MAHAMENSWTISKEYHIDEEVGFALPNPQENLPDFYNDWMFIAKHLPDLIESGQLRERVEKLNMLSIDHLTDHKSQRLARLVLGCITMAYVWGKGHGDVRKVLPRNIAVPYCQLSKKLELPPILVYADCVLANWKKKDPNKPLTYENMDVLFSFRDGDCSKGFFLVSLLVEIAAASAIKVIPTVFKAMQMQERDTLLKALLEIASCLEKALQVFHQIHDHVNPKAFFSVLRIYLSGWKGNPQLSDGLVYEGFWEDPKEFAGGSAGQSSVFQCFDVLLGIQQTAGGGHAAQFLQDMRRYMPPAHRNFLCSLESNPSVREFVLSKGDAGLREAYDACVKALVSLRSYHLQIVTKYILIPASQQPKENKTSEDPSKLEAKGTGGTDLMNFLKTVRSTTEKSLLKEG

Target: T1, IDO1 (Homo sapiens, UniProt P14902)
T1 construct: Recombinant full-length IDO1 (Seegers, N., et al.) and all other assay components were diluted in IDO1 reaction buffer; made in house
Experiment: Cell-based assay for IDO1 in A-375 melanoma cells
Conditions: interferon-γ stimulation, 48 hours, read-out: IC50, cell-based assay for IDO1 (NFK levels)

Work on `CC(C)CCc1cc(F)c(C(=O)N2CC(=O)N(O)C2c2cc(Br)cs2)c(F)c1` (stereo not shown) [Example 95, 2-(4-Bromo-2-thienyl)-1-(2,6-difluoro-4-isopentyl-benzoyl)-3-hydroxy-imidazolidin-4-one] yielded an IC50 of less than 5 µM.

Work on `O=C1CN(C(=O)c2c(F)cccc2F)C(c2cc(Br)c(F)s2)N1O` (single isomer, unassigned) [Example 110a, 2-(4-Bromo-5-fluoro-2-thienyl)-1-(2,6-difluorobenzoyl)-3-hydroxy-imidazolidin-4-one] yielded an IC50 of less than 5 µM.

In the case of `O=C1CN(C(=O)c2c(F)ccc(C(F)(F)F)c2F)C(c2csc(Br)c2)N1O` (stereo not shown) [Example 103, 2-(5-Bromo-3-thienyl)-1-[2,6-difluoro-3-(trifluoromethyl)benzoyl]-3-hydroxy-imidazolidin-4-one], the IC50 is reported as less than 5 µM.

Compound `O=C1CN(C(=O)c2c(F)c(F)c(F)c(F)c2F)C(c2cc(Br)cs2)N1O` (stereo not shown) [Example 63, 2-(4-Bromo-2-thienyl)-3-hydroxy-1-(2,3,4,5,6-pentafluorobenzoyl)imidazolidin-4-one] has an IC50 of less than 5 µM.

`O=C1CN(C(=O)c2c(F)cccc2F)C(c2cc(Br)c(F)s2)N1O` (stereo not shown) [Example 37, 2-(4-Bromo-5-fluoro-2-thienyl)-1-(2,6-difluorobenzoyl)-3-hydroxy-imidazolidin-4-one] gave an IC50 of less than 5 µM.

In the case of `O=C1CN(C(=O)c2ccccc2F)C(c2cc(Br)cs2)N1O` (stereo not shown) [Example 9, 2-(4-Bromo-2-thienyl)-1-(2-fluorobenzoyl)-3-hydroxy-imidazolidin-4-one], the IC50 is reported as less than 5 µM.

With `C[C@@H](c1ccccc1)N1CC(=O)N(O)C1c1csc(Br)c1` (single isomer, unassigned) [Example 121b] the IC50 was less than 5 µM.

`O=C1CN(C(=O)c2c(F)cccc2F)C(c2csc(Br)c2)N1O` (single isomer, unassigned) [Example 46a, 2-(5-Bromo-3-thienyl)-1-(2,6-difluorobenzoyl)-3-hydroxy-imidazolidin-4-one] showed an IC50 of less than 5 µM.

Work on `CC(C)(N)C#Cc1cc(F)c(C(=O)N2CC(=O)N(O)C2c2cc(Br)cs2)c(F)c1` (stereo not shown) [Example 81, 1-[4-(3-Amino-3-methyl-but-1-ynyl)-2,6-difluoro-benzoyl]-2-(4-bromo-2-thienyl)-3-hydroxy-imidazolidin-4-one] yielded an IC50 of less than 5 µM.

With `Cc1ccc(F)c(C(=O)N2CC(=O)N(O)C2c2csc(Br)c2)c1F` (stereo not shown) [Example 102, 2-(5-Bromo-3-thienyl)-1-(2,6-difluoro-3-methyl-benzoyl)-3-hydroxy-imidazolidin-4-one] the IC50 was less than 5 µM.

`Cn1cc(-c2ccc(F)c(C(=O)N3CC(=O)N(O)C3c3cc(Br)cs3)c2F)cn1` (stereo not shown) [Example 125, 2-(4-Bromo-2-thienyl)-1-[2,6-difluoro-3-(1-methylpyrazol-4-yl)benzoyl]-3-hydroxy-imidazolidin-4-one] was tested, and the IC50 was less than 5 µM.

`O=C1CN(C(=O)c2c(F)cc(C#CC3CCCCC3)cc2F)C(c2cc(Br)cs2)N1O` (stereo not shown) [Example 78, 2-(4-Bromo-2-thienyl)-1-[4-(2-cyclohexylethynyl)-2,6-difluoro-benzoyl]-3-hydroxy-imidazolidin-4-one] showed an IC50 of less than 5 µM.

Compound `O=C1CN(C(=O)c2cccnc2Cl)C(c2cc(Br)cs2)N1O` (stereo not shown) [Example 66, 2-(4-Bromo-2-thienyl)-1-(2-chloropyridine-3-carbonyl)-3-hydroxy-imidazolidin-4-one] has an IC50 of less than 5 µM.

`O=C1CN(C(=O)c2cccc(Cl)c2Cl)C(c2cc(Br)cs2)N1O` (stereo not shown) [Example 69, 2-(4-Bromo-2-thienyl)-1-(2,3-dichlorobenzoyl)-3-hydroxy-imidazolidin-4-one] was tested, and the IC50 was less than 5 µM.

Compound `O=C1CN(Cc2c(F)cccc2F)C(c2cc(Br)cs2)N1O` (stereo not shown) [Example 44, 2-(4-Bromo-2-thienyl)-1-[(2,6-difluorophenyl)methyl]-3-hydroxy-imidazolidin-4-one] has an IC50 of less than 5 µM.

Compound `O=C1CN(C(=O)c2c(F)cccc2F)C(c2cc(I)cs2)N1O` (stereo not shown) [Example 36, 1-(2,6-Difluorobenzoyl)-3-hydroxy-2-(4-iodo-2-thienyl)imidazolidin-4-one] has an IC50 of less than 5 µM.
